Data: US9309240B2, “Pyrazolopyridine compounds, compositions and methods of use” (F. HOFFMANN-LA ROCHE AG, priority 2010, dated 2016)
Counter-ions that a name gives are not always drawn. Some results were stated once for a whole list of compounds, not compound by compound.

Molecular target: T1, TYK2 kinase domain (Homo sapiens, UniProt P29597)
T1 construct: The activity of the isolated JAK1, JAK2 or TYK2 kinase domain was measured
T1 sequence (P29597 897-1176 limits assumed): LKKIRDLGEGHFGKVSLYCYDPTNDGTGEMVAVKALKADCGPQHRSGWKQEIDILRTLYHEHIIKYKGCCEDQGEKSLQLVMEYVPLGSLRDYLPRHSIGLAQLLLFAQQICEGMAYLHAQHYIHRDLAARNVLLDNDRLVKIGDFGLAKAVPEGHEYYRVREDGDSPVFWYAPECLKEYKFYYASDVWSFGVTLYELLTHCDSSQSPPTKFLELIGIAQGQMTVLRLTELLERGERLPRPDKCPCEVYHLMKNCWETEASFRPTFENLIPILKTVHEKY
Assay: JAK1, JAK2 and TYK2 Inhibition Assay Protocol (Example A): TYK2 kinase domain, Caliper LabChip peptide phosphorylation
Format: biochemical
Experimental: The activity of the isolated JAK1, JAK2 or TYK2 kinase domain was measured by monitoring phosphorylation of a peptide derived from JAK3 (Val-Ala-Leu-Val-Asp-Gly-Tyr-Phe-Arg-Leu-Thr-Thr) fluorescently labeled on the N-terminus with 5-carboxyfluorescein using the Caliper LabChip technology (Caliper Life Sciences, Hopkinton, Mass.). To determine the inhibition constants (Ki) of Examples 1-165, compounds were diluted serially in DMSO and added to 50 μL kinase reactions containing 1.5 nM JAK1, 0.2 nM purified JAK2 or 1 nM purified TYK2 enzyme, 100 mM Hepes pH7.2, 0.015% Brij-35, 1.5 uM peptide substrate, 25 uM ATP, 10 mM MgCl2, 4 mM DTT at a final DMSO concentration of 2%. Reactions were incubated at 22° C. in 384-well polypropylene microtiter plates for 30 minutes and then stopped by addition of 25 μL of an EDTA containing solution (100 mM Hepes pH 7.2, 0.015% Brij-35, 150 mM EDTA), resulting in a final EDTA concentration of 50 mM. After termination of the kinase reaction, the proportion of phosphorylated product was determined as a fraction of total peptide substrate using the Caliper LabChip 3000 according to the manufacturer's specifications. Ki values were then determined using the Morrison tight binding model. Morrison, J. F., Biochim. Biophys. Acta. 185:269-296 (1969); William, J. W. and Morrison, J. F., Meth. Enzymol., 63:437-467 (1979).

Ki, < 500 nM:
Cc1cc(Nc2nccc3nn(-c4c(Cl)cc(N)cc4Cl)cc23)nc(C)n1 [Example 159, 2-(4-amino-2,6-dichlorophenyl)-N-(2,6-dimethylpyrimidin-4-yl)-2H-pyrazolo[4,3-c]pyridin-4-amine]
Cc1cc(Nc2nccc3nn(-c4c(Cl)cccc4Cl)cc23)ncn1 [Example 46, [2-(2,6-Dichlorophenyl)-2H-pyrazolo[4,3-c]pyridine-4-yl]-(6-methylpyrimidin-4-yl)amine]
Cc1nc(CO)cc(Nc2ncc(F)c3nn(-c4c(F)cccc4Cl)cc23)n1 [Example 111, {6-[2-(2-Chloro-6-fluorophenyl)-7-fluoro-2H-pyrazolo[4,3-c]pyridin-4-ylamino]-2-methylpyrimidin-4-yl}-methanol hydrochloride salt]
Cc1nc(N)cc(Nc2nccc3nn(-c4c(Cl)cc(C#N)cc4Cl)cc23)n1 [Example 24, 4-[4-(6-Amino-2-methylpyrimidin-4-ylamino)pyrazolo[4,3-c]pyridin-2-yl]-3,5-dichlorobenzonitrile]
CNc1nc(C)cc(Nc2nccc3nn(-c4c(Cl)cccc4Cl)cc23)n1 [Example 13, N^4-[2-(2,6-Dichlorophenyl)-2H-pyrazolo[4,3-c]pyridin-4-yl]-6,N^2-dimethylpyrimidine-2,4-diamine]
Nc1cc(Nc2nccc3nn(-c4c(Cl)cccc4Cl)cc23)ncn1 [Example 14, N-[2-(2,6-Dichlorophenyl)-2H-pyrazolo[4,3-c]pyridin-4-yl]-pyrimidine-4,6-diamine]
Cc1cc(Nc2ncc(F)c3nn(-c4c(Cl)cc(F)cc4C#N)cc23)ncn1 [Example 103, 3-Chloro-5-fluoro-2-[7-fluoro-4-(6-methylpyrimidin-4-ylamino)-pyrazolo[4,3-c]pyridin-2-yl]-benzonitrile]
Cc1cc(Nc2ncc(F)c3nn(-c4c(Cl)cc(F)cc4C#N)cc23)nc(N)n1 [Example 138, 2-[4-(2-Amino-6-methylpyrimidin-4-ylamino)-7-fluoro-pyrazolo[4,3-c]pyridin-2-yl]-3-chloro-5-fluoro-benzonitrile•HCl]
Nc1cc(Cl)c(-n2cc3c(NC(=O)C4CC4)nccc3n2)c(Cl)c1 [Example 162, N-(2-(4-amino-2,6-dichlorophenyl)-2H-pyrazolo[4,3-c]pyridin-4-yl]cyclopropane-carboxamide]
FC1CN(c2cc(Nc3nccc4nn(-c5c(Cl)cccc5Cl)cc34)ncn2)C1 [Example 5, [2(2,6-Dichlorophenyl)-2H-pyrazolo[4,3-c]pyridine-4-yl]-[6-(3-fluoroazetidin-1-yl)pyrimidin-4-yl]amine]
N#Cc1cc(F)cc(Cl)c1-n1cc2c(Nc3cc(N4CC(F)C4)ncn3)ncc(F)c2n1 [Example 105, 3-Chloro-5-fluoro-2-{7-fluoro-4-[6-(3-fluoroazetidin-1-yl)pyrimidin-4-ylamino]pyrazolo[4,3-c]pyridin-2-yl}benzonitrile hydrochloride salt]
OCc1cc(Nc2ncc(F)c3nn(-c4c(Cl)cc(F)cc4Cl)cc23)ncn1 [Example 80]
N#Cc1cccc(Cl)c1-n1cc2c(Nc3cc(N)ncn3)ncc(Cl)c2n1 [Example 151, 2-(4-(6-aminopyrimidin-4-ylamino)-7-chloro-2H-pyrazolo[4,3-c]pyridin-2-yl)-3-chlorobenzonitrile]
FCc1cc(Nc2nccc3nn(-c4c(Cl)cc(F)cc4Cl)cc23)ncn1 [Example 29, [2-(2,6-Dichloro-4-fluorophenyl)-2H-pyrazolo[4,3-c]pyridin-4-yl]-(6-fluoromethylpyrimidin-4-yl)amine]
Cc1cc(Nc2ncc(F)c3nn(-c4c(Cl)cccc4C#N)cc23)nc(N)n1 [Example 124, 2-[4-(2-Amino-6-methylpyrimidin-4-ylamino)-7-fluoropyrazolo[4,3-c]pyridin-2-yl]-3-chlorobenzonitrile]
CC(O)c1cc(Nc2nccc3nn(-c4c(Cl)cccc4Cl)cc23)ncn1 (stereo not drawn) [Example 93, 1-{6-[2-(2,6-Dichlorophenyl)-2H-pyrazolo[4,3-c]pyridin-4-ylamino]-pyrimidin-4-yl}-ethanol]
Cc1cc(Nc2ncc(F)c3nn(-c4c(Cl)cc(N)cc4Cl)cc23)ncn1 [Example 99, [2-(4-Amino-2,6-dichlorophenyl)-7-fluoro-2H-pyrazolo[4,3-c]pyridin-4-yl]-(6-methylpyrimidin-4-yl)-amine]
Cc1nc(N)cc(Nc2ncc(F)c3nn(-c4c(F)cccc4Cl)cc23)n1 [Example 109, N-[2-(2-Chloro-6-fluorophenyl)-7-fluoro-2H-pyrazolo[4,3-c]pyridin-4-yl]-2-methylpyrimidine-4,6-diamine hydrochloride salt]
N#Cc1cnc(Nc2cc(CO)ncn2)c2cn(-c3c(Cl)cccc3Cl)nc12 [Example 118, 2-(2,6-Dichlorophenyl)-4-(6-hydroxymethyl-pyrimidin-4-ylamino)-2H-pyrazolo[4,3-c]pyridine-7-carbonitrile]
Cc1cc(Nc2ncc(F)c3nn(-c4c(Cl)cc(C#N)cc4Cl)cc23)ncn1 [Example 33, 3,5-Dichloro-4-[7-fluoro-4-(6-methyl-pyrimidin-4-ylamino)-pyrazolo[4,3-c]pyridin-2-yl]-benzonitrile]
O=C(Nc1nccc2nn(-c3c(F)cccc3Cl)cc12)C1CC1 [Example 15, N-(2-(2-chloro-6-fluorophenyl)-2H-pyrazolo[4,3-c]pyridin-4-yl)cyclopropanecarboxamide]
Nc1ccc(-n2cc3c(Nc4ccc(S(=O)(=O)N5CCOCC5)cn4)nccc3n2)c(Cl)c1 [Example 163, 2-(4-amino-2-chlorophenyl)-N-(5-(morpholinosulfonyl)pyridin-2-yl)-2H-pyrazolo[4,3-c]pyridin-4-amine]
Cc1cc(Nc2ncc(Cl)c3nn(-c4c(Cl)cc(C#N)cc4Cl)cc23)ncn1 [Example 30, 3,5-Dichloro-4-[7-chloro-4-(6-methylpyrimidin-4-ylamino)pyrazolo[4,3-c]pyridin-2-yl]benzonitrile]
Cc1cc(Nc2nccc3nn(-c4c(Cl)cccc4Cl)cc23)ncc1C#N [Example 53, 6-[2-(2,6-Dichlorophenyl)-2H-pyrazolo[4,3-c]pyridin-4-ylamino]-4-methyl-nicotinonitrile]
OCCNc1cc(Nc2nccc3nn(-c4c(Cl)cccc4Cl)cc23)ncn1 [Example 61, 2-{6-[2-(2,6-Dichlorophenyl)-2H-pyrazolo[4,3-c]pyridin-4-ylamino]pyrimidin-4ylamino}ethanol]
Cc1cc(Nc2ncc(F)c3nn(-c4c(F)cccc4Cl)cc23)nc(CO)n1 [Example 112, {4-[2-(2-Chloro-6-fluoro-phenyl)-7-fluoro-2H-pyrazolo[4,3-c]pyridin-4-ylamino]-6-methyl-pyrimidin-2-yl}-methanol hydrochloride salt]
Nc1cc(Nc2nccc3nn(-c4c(F)ccc(F)c4Cl)cc23)ncn1 [Example 81, N4-(2-(2-chloro-3,6-difluorophenyl)-2H-pyrazolo[4,3-c]pyridin-4-yl)pyrimidine-4,6-diamine]
Cc1cc(Nc2ncc(F)c3nn(-c4c(F)cccc4C#N)cc23)ncn1 [Example 107, 3-Fluoro-2-[7-fluoro-4-(6-methylpyrimidin-4-ylamino)pyrazolo[4,3-c]pyridin-2-yl]benzonitrile hydrochloride salt]
Clc1cccc(Cl)c1-n1cc2c(Nc3ccncn3)nccc2n1 [Example 44, [2-(2,6-Dichlorophenyl)-2H-pyrazolo[4,3-c]pyridine-4-yl]pyrimidin-4-ylamine]
Cc1nc(CO)cc(Nc2ncc(F)c3nn(-c4c(Cl)cc(F)cc4C#N)cc23)n1 [Example 140, 3-Chloro-5-fluoro-2-[7-fluoro-4-(6-hydroxymethyl-2-methylpyrimidin-4-ylamino)-pyrazolo[4,3-c]pyridin-2-yl]-benzonitrile•HCl]
N#Cc1cc(F)cc(Cl)c1-n1cc2c(Nc3cc(N)ncn3)ncc(F)c2n1 [Example 134, 2-[4-(6-Aminopyrimidin-4-ylamino)-7-fluoropyrazolo[4,3-c]pyridin-2-yl]-3-chloro-5-fluorobenzonitrile]
Cc1cc(Nc2nccc3nn(-c4c(F)cccc4C#N)cc23)ncn1 [Example 157, 3-fluoro-2-(4-(6-methylpyrimidin-4-ylamino)-2H-pyrazolo[4,3-c]pyridin-2-yl)benzonitrile]
N#Cc1cc(F)cc(Cl)c1-n1cc2c(Nc3cc(CO)ncn3)ncc(F)c2n1 [Example 133, 3-Chloro-5-fluoro-2-[7-fluoro-4-(6-hydroxymethyl-pyrimidin-4-ylamino)-pyrazolo[4,3-c]pyridin-2-yl]-benzonitrile]
